Experimental data published in PubChem BioAssay AID1508600 (Functional Genomics Laboratory (NCATS/FGL), 2020).
About 3,700 (7%) of roughly 53,000 sequences were called active.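 How the source made its calls: active means gene knockdowns whose robust z-score for IL-1 alpha signal is at least 2 or at most -2, so actives lie on both sides; inactive means the rest.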 Some of the results follow.

assay: Components of the Cytosolic LPS Sensing Pathway: Gene Identification via Genome-wide siRNA Screen; conditions: RAW264.7 macrophages, IL-1a HTRF, actives lie on both sides, screened at 100 nM (by protocol), cells primed 5 h with Pam3CSK4 first;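 further: robust z of the log signal after scaling to non-targeting control siRNA wells of the plate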
In short: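 Mouse macrophage line RAW264.7 is transfected with siRNA (100 nM final), grown 48h, primed with TLR ligand Pam3CSK4 5 h and given intracellular LipidA 24 h. IL-1a in supernatant is read by HTRF and viability by luminescence.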

| Sequence | z-score |
| --- | --- |
| GGAAAAUCCAGAGGUACGUTT against Kcnj6 | inactive: 0.409 |
| GCACCGAGUGGAAUAAUCATT against Lrp12 | active: 3.44 |
| GGUUUUGGUUUUGUGGAAUTT against Srsf5 | inactive: 1.45 |
| GCAGGAACACUGGUUUGAATT against Otud5 | inactive: -0.653 |
| GGAAAAGAAAAAGUUGGGCTT against Rbm42 | inactive: 0.313 |
| CUUCUGAAUCCAGUGCCCATT against Tmem199 | inactive: 0.77 |
| GGACUAUUAGAUUCCAGCATT against Wnt6 | inactive: -0.311 |
| GGAAAGUGCCCUCCACACUTT against Lgi4 | inactive: 0.0864 |
| GGGAACUUAACCUAGGCGUTT against Pdx1 | inactive: 0.611 |
| UGGAAGCCUUAUGCCGUCUTT against Gpr31b | inactive: 0.895 |
| GGAAAAGGAGAUAUCCAGCTT against Bag5 | inactive: 1.22 |
| GCUUGUCUACUUCCUAGAUTT against Rnpep | inactive: 0.442 |
| GGCUCGGUACUUAAAGGAUTT against Trmt6 | inactive: 0.538 |
| GGAAUUCAUCUGUUAGAUUTT against Tti2 | inactive: -1.4 |
| GCACUACCAAGGCGAUAACTT against Tspan18 | inactive: -0.624 |
| GGGCUGAAAAAGGAACUGCTT against Ccdc163 | inactive: 0.245 |
| GCUACAGGUUUUAUCUCUUTT against Myl10 | inactive: 0.531 |
| GGAAACAUCUUGUUGCUUUTT against Chkb | inactive: -0.489 |
| GGAAACAGAGACUGAAUUUTT against Cc2d2a | inactive: 1.77 |
| GCCUUUUACUACCAUCCCGTT against Rbfox2 | inactive: -1.35 |
| GGAUCAAGUCUACAGCUAGTT against Olfr225 | inactive: -0.802 |
| GCUAGUUUGGACCAUACGGTT against Ehhadh | inactive: 0.0291 |
| GGUUGUCUAUGAUUCAGGGTT against Creb3l4 | inactive: -0.129 |
| CCGGCUUCACCGAAUACUUTT against Tmem145 | inactive: -0.426 |
| GCUUACUGACUUUGGAUGCTT against Mrgpra4 | inactive: 0.89 |
| GCCUGAUGCCUGCAUAAGUTT against Gla | inactive: 0.157 |
| GGAAUUACCAGUGAAAAAUTT against Ubtd2 | inactive: 1.95 |
| GGAACUAAUGACCAUUUUCTT against Lix1 | inactive: -1.15 |
| GCGAUGGUAUGUUGAAGGATT against 4930432E11Rik | inactive: 0.639 |
| GCAAAAGUAUUUUGUGUCCTT against Aamp | inactive: 0.241 |

Single values from the results shown.
Under z-score, GCCUUUUACUACCAUCCCGTT against Rbfox2 has inactive: -1.35
Under z-score, GGAAAAGAAAAAGUUGGGCTT against Rbm42 has inactive: 0.313
